Laboratory results from patent US20160083733A1, “NOVEL TREATMENT OF METABOLIC DISEASES” (UNIVERSITY OF BREMEN, priority 2013, published 2016).
For at least one compound, name, drawing or mass did not settle the structure.

Columns and labels:
MST1 = MST1 activation and AKT signalling in INS-1E cells and human islets, western blotting; type: cell-based, rat
human islets = assay: MST1 overexpression (Ad-MST1)-induced apoptosis in human islets; type: cell-based; settings: Ad-MST1 48 h
Source text: Human islets were isolated from twenty pancreases of healthy organ donors and from five with T2D at the University of Illinois at Chicago or Lille University and cultured on extracellular matrix (ECM) coated dishes (Novamed, Jerusalem, Israel) as described previously (Schulthess et al., Cell. Metab. 9 (2009) 125-139). Islet purity was greater than 95% as judged by dithizone staining (if this degree of purity was not achieved by routine isolation, islets were handpicked). Islets from MST1^−/− mice and their WT littermates were isolated as described previously (Schulthess et al., Cell. Metab. 9 (2009) 125-139). […]
Pancreatic tissues were processed as previously described (Shu et al., Diabetes 57 (2007), 645-53). […] Slides were mounted with Vectashield with 4′6-diamidino-2-phenylindole (DAPI) (Vector Labs). β-cell apoptosis for mouse sections or primary islets cultured on ECM dishes was analyzed by the terminal deoxynucleotidyl transferase-mediated dUTP nick-end labeling (TUNEL) technique according to the manufacturer's instructions (In Situ Cell Death Detection Kit, TMR red; Roche) and double stained for insulin. Fluorescence was analyzed using a Nikon MEA53200 (Nikon GmbH, Dusseldorf, Germany) microscope and images were acquired using NIS-Elements software (Nikon). […]

[1] = INS-1E cells 10 μM (LY294002 8 h, Triciribine 6 h), human islets Triciribine 20 μM 24 h

Row | SMILES | MST1 activation (MST1; [1]) | phosphorylation of GSK3 and FOXO1 (MST1; [1]) | stress-induced MST1 cleavage by diabetic stimuli (MST1; human islets and INS-1E cells) | MST1-induced increase in Bim and subsequent caspase-3 cleavage (human islets)
1 | O=c1cc(N2CCOCC2)oc2c(-c3ccccc3)cccc12 [LY294002] | induced | decreased levels | – | –
2 | Oc1c2ccccc2c2c3c(cccc13)N=N2 [SP600125, reference compound] | – | – | JNK and caspase-3 were responsible for stress-induced MST1 cleavage | prevented
